The record followed here is PMC9481570, “A small molecule antagonist of SMN disrupts the interaction between SMN and RNAP II” (Nature Communications, 2022).

Chains of the proteins cited; added tags and fusions are not shown.
UniProt Q16637: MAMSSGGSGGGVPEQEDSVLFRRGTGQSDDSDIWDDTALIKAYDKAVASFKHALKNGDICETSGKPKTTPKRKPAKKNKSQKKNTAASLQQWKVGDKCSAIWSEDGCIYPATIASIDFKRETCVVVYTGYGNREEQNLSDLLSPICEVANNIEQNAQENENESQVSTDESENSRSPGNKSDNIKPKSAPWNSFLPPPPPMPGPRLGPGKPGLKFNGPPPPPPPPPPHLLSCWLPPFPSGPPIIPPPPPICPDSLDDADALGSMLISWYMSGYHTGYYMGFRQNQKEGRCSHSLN
UniProt O14893: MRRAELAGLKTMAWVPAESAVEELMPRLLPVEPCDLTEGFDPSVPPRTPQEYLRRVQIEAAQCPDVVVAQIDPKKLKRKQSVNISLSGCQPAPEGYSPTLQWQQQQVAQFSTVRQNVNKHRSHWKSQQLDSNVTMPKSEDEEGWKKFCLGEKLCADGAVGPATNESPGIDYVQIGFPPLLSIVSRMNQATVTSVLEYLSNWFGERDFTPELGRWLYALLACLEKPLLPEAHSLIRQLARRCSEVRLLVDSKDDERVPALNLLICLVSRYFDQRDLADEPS
UniProt Q8WXD5: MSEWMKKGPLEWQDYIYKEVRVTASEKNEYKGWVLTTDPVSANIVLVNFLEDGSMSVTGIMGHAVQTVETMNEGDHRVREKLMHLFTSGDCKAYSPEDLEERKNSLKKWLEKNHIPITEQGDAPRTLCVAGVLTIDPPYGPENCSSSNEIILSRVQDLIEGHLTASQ

This experiment has as its target Survival of motor neuron (SMN), endogenous in U2OS cells (human (endogenous in U2OS)) (UniProt Q16637). Briefly: affinity purification with mass spectrometry; U2OS lysate in RIPA buffer, 20 uM biotin-labelled compound 1 (ligand of SMN) overnight at 4 °C, streptavidin beads; compared with competition by 200 uM free compound 1; three biological replicates.

These are yes or no findings as the source states them, for the method shown. In cells and extracts the contact can be indirect. Here binding means that the protein was enriched with, or labelled near, the bait; the list need not be complete.

With GEMIN2 (from UniProt O14893 1-280), the binding result is given as “binds”.
GEMIN6 (from UniProt Q8WXD5 1-167): the binding result is “binds”.
